Reference: PubChem BioAssay AID504786 (Drosophila RNAi Screening Center, 2011)
The deposit covers about 21,000 reagents; shown is an unselected part of those with a known target gene and a result. 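Primary screen; positive scores mean lost reporter signal, so the sign may be inverted from the usual convention.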 Names joined by + are all predicted targets of the reagent. Not all columns of the deposit are shown.

- Aim: 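Fly genes required for HIF-dependent transcription when hypoxia is mimicked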 (primary screen)
- System: Drosophila S2 cells with a stable HIF luciferase reporter
- Reagent: long dsRNA against Drosophila genes, about 0.2 µg dsRNA per well of a 384-well plate
- Time to read-out: three days of knock-down, then 20 h of DFO before reading
- Conditions: desferrioxamine (DFO) at 100 µM, an iron chelator that mimics hypoxia, for 20 h
- Read-out: 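HIF reporter luminescence in cells given 100 µM DFO for 20 h, using the mouse ldh-a hypoxia-response element, scored as per-plate z-scores; higher means greater loss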
- Direction: z-score: higher = stronger loss of HIF reporter signal

no.	gene knocked down	dsRNA	z-score, replicate 1	z-score, replicate 2	z-score, replicate 3
1	Muc68D	DRSC10569	-0.4	-0.3	
2	CG43339 + CG43338	DRSC02466	-0.4	-0.5	
3	CG44325	DRSC18423	-0.2	0.6	
4	P32	DRSC06988	-0.2	-0.5	
5	CG32986	DRSC02509	-0.3	-0.4	
6	CG10041	DRSC14179	-0.2	0.5	
7	CG30020	DRSC06252	1.2	0.7	
8	CG30020	DRSC06730	1	1.3	
9	Phae1	DRSC02554	-0.2	-0.8	
10	Mal-B1	DRSC02416	-0.1	-0.2	
11	CG18178	DRSC10302	-0.4	-0.3	
12	Spec2 (retired record)	DRSC12258	-0.4	-0.6	
13	IM33	DRSC00476	-0.3	-0.2	
14	edl	DRSC06516	-0.3	-0.3	
15	Gnf1	DRSC12351	0.3	1.1	
16	CG13067	DRSC09950	-0.2	0.2	
17	RanBP3	DRSC14217	-0.1	0.9	
18	CG8343	DRSC04905	-0.2	-0.3	
19	beta4GalNAcTA	DRSC05944	-0.6	-0.4	
20	Vps13B	DRSC15060	-0.2	-0.5	
21	Cyp49a1	DRSC06737	0.2	-0.1	
22	Cyp49a1	DRSC07367	-0.3	-0.5	
23	ND-PDSW	DRSC00715	-0.3	-0.4	
24	Tsen54	DRSC10527	-0.2	0	
25	Ype	DRSC20301	0.1	-0.3	
26	kud	DRSC11086	-0.3	-0.3	
27	Vps37B	DRSC12165	-0.2	0.4	
28	CG13024	DRSC09904	-0.3	-0.6	
29	CG11095	DRSC19375	-0.2	-0.5	
30	CG4982	DRSC10465	-0.2	0.6	
31	CG11309	DRSC11650	-0.2	-0.1	
32	CG15256	DRSC01940	-0.2	-0.1	
33	Or63a	DRSC08681	-0.4	-0.7	
34	CG14402	DRSC02386	-0.1	-0.2	
35	ttm50	DRSC18587	-0.1	-0.5	
36	CG10031	DRSC00286	-0.4	-1	
37	NimA	DRSC01353	-0.1	0.3	
38	CG15160	DRSC02461	-0.4	-0.6	
39	CG42493	DRSC05309	0.4	0.2	
40	Syp	DRSC13444	-0.4	0	
41	Syp	DRSC15286	-0.3	-0.4	
42	CG32511 (retired record)	DRSC20697	-0.4	-0.2	
43	CG1648	DRSC06610	-0.3	-0.4	-0.5
44	gig	DRSC11351	-0.6	-1.1	
45	CG43999	DRSC14605	-0.3	-0.2	
46	mthl10	DRSC08504	-0.4	-0.7	
47	mthl10	DRSC08505	-0.4	-0.4	
48	CG12290	DRSC14497	-0.3	-0.4	
49	azot	DRSC06051	-0.3	-0.4	
50	Arv1	DRSC11491	-0.4	-0.2	
51	CG7785	DRSC16311	-1	-0.6	
52	Cyp4p3	DRSC07374	-0.2	-0.3	
53	CG3548	DRSC04387	-0.3	0.4	
54	Sld5	DRSC14892	-0.1	0.2	
55	Fer2	DRSC15925	0.2	-0.2	
56	CG17666	DRSC10276	-0.3	0.6	
57	CG7778	DRSC03067	-0.3	-0.2	
58	CG31128	DRSC13675	-0.3	-0.1	
59	Cyp12c1	DRSC11125	-0.3	0	
60	CG3630	DRSC18499	-0.3	-0.5	
61	CG17343	DRSC02606	-0.3	-0.6	
62	CG31686 (retired record)	DRSC00102	-0.1	0.7	
63	CG15446	DRSC20518	-0.4	-0.2	
64	mRpS31	DRSC10556	0.8	0.5	
65	CG42246	DRSC17520	-0.2	-0.2	
66	salt	DRSC15427	-0.2	-0.3	
67	Irk1	DRSC16106	-0.2	-0.1	
68	CG5800	DRSC19962	-0.2	2	
69	CG2818	DRSC00540	-0.4	-0.3	
70	CG3257	DRSC04351	-0.1	-0.9	

Next part (14 carried over from the part before).
no.	gene knocked down	dsRNA	z-score, replicate 1	z-score, replicate 2	z-score, replicate 3
57	CG7778	DRSC03067	-0.3	-0.2	
58	CG31128	DRSC13675	-0.3	-0.1	
59	Cyp12c1	DRSC11125	-0.3	0	
60	CG3630	DRSC18499	-0.3	-0.5	
61	CG17343	DRSC02606	-0.3	-0.6	
62	CG31686 (retired record)	DRSC00102	-0.1	0.7	
63	CG15446	DRSC20518	-0.4	-0.2	
64	mRpS31	DRSC10556	0.8	0.5	
65	CG42246	DRSC17520	-0.2	-0.2	
66	salt	DRSC15427	-0.2	-0.3	
67	Irk1	DRSC16106	-0.2	-0.1	
68	CG5800	DRSC19962	-0.2	2	
69	CG2818	DRSC00540	-0.4	-0.3	
70	CG3257	DRSC04351	-0.1	-0.9	
71	Fam92	DRSC02952	-0.2	0	
72	Cad99C	DRSC15050	-0.3	-0.6	
73	Cad99C	DRSC16317	-0.4	0.2	
74	Pink1	DRSC18361	-0.2	-0.3	
75	Bin1	DRSC16843	-0.3	-0.2	
76	Hex-t1	DRSC16701	-0.3	0.1	
77	Cyp313a2	DRSC16625	-0.4	-0.3	
78	Trpgamma	DRSC03626	-0.2	-0.3	
79	jb	DRSC20531	-0.5	-0.1	
80	CG31221	DRSC14335	-1.2	-0.1	
81	CG31221	DRSC16217	-1	-0.1	
82	CG14893	DRSC15015	-0.2	-0.1	
83	Drep4	DRSC03408	-0.4	0	
84	Dora	DRSC19614	-0.4	-0.5	
85	Dora	DRSC19781	-0.3	-0.6	
86	Dora	DRSC20034	0.9	0	
87	Dora	DRSC20035	0.2	-0.3	
88	Ppr-Y	DRSC20892	-0.3	-0.3	
89	CG12299	DRSC02158	-0.6	-0.7	
90	REPTOR	DRSC14626	0.2	-0.4	
91	CG15605	DRSC06558	-0.2	-0.6	
92	Polr3I	DRSC19922	0.2	1	
93	Mpi	DRSC16417	-0.1	-0.4	
94	VhaM9.7-a	DRSC08289	-0.4	0	
95	Las	DRSC11772	-0.1	-0.4	
96	CG4942	DRSC10462	-0.2	-0.3	
97	CCT1	DRSC16877	2.6	4.5	
98	Dnah3	DRSC08130	-0.2	-0.4	
99	Dnah3	DRSC08513	-0.3	-0.4	
100	Oatp30B	DRSC02727	-0.3	-0.6	
101	RhoL	DRSC16824	0	0.2	
102	CG8170	DRSC07087	-0.2	-0.4	
103	Rph	DRSC17790	-0.3	-0.2	
104	CG5906	DRSC10557	-0.2	0.2	
105	Trm7-32	DRSC15741	-0.2	0.3	
106	Tsp42Ec	DRSC06192	-0.3	-0.3	
